Assay results reported in patent publication US20070207120A1, “Selective Killing Of Cancer Cells By Induction Of Acetyltransferase Via Tnf-Alpha And Il-6” (priority 2004, published 2007).

System: transformed WI38 VA13 cells
Experiment: Cytokine and deacetylase inhibitor treatment, transformed cells
Assay type: cell-based, human
Details: SAHA 5 μg/ml alone and in combination with cytokines
Procedure: Human cells WI38 (ATCC number CCL-75), WI38 VA13 (ECACC number 85062512), SaOS2 (ECACC number 89050205), U20S (ATCC number HTB-96), HeLa (CCL-2), HEK 293 (ATCC number CRL-1573) and Hs68 (ATCC number CRL-1635) were obtained from ATCC, ECACC or CR-UK cell services. All cells were cultured as monolayers in 10% foetal bovine serum in Dulbecco's minimal essential medium at 37° C. in 5% CO2, except SaOS2 cells which were cultured in McCoy's 5a medium supplemented with 1.5 mM L-glutamine and 15% foetal bovine serum. VA13 cells are WI38 primary fibroblasts transformed with SV40 virus and therefore share the same genetic background. To measure cell viability and total cell number, cells in suspension and adherent cells were collated and analysed by resuspending with a known concentration of CaliBRITE unlabelled beads (Becton Dickinson) plus propidium iodide and counting the number of live and dead cells per 3000 beads using a FACSCalibur flow cytometer (Becton Dickinson). Alternatively, an automated trypan blue assay using a Vi-Cell XR Cell Viability Analyzer (Beckman Coulter) was employed. […] For cytokine treatment in combination with deacetylase inhibitors, cells were harvested and counted 48 hours after addition of deacetylase inhibitor.

O=C(CCCCCCC(=O)Nc1ccccc1)NO [SAHA, suberoylanilide hydroxamic acid]
killing of VA13 cells: very effective
